The results in this text go back to paper PMC11841255.

The chains behind the UniProt entries cited, without tags or fusion partners.
UniProt Q13263: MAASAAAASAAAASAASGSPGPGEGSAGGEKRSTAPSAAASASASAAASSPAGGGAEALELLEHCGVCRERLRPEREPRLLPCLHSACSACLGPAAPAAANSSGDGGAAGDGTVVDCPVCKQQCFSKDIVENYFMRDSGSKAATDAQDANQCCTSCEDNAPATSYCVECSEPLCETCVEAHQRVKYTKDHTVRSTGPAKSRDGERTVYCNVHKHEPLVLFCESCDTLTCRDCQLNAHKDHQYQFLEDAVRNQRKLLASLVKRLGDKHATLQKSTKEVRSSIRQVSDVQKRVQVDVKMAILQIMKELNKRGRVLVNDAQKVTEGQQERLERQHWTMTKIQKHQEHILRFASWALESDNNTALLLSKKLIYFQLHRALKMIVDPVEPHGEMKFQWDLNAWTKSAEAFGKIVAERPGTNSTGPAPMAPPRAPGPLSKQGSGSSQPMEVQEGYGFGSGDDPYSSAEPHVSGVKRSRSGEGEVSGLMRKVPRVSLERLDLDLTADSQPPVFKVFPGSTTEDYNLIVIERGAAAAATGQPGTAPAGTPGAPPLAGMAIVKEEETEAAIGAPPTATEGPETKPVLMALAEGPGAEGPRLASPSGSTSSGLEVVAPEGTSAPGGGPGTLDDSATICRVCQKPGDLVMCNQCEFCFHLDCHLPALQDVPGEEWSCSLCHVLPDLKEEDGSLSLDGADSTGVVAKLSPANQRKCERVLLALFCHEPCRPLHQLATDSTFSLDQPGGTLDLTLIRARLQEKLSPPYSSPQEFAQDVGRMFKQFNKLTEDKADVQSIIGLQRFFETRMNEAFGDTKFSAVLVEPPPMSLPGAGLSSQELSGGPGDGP

Results are given in words; binding and its absence hold for the method and conditions named. Binding seen in cells or lysates may run through a third protein. Some binding calls cover weakened binding; strength is not graded here. For some assays here: Where a sequence is shown, tags or fusion partners need not be part of it.

The target in assay [1] is T1, GFP-CDCA3 (UniProt Q99618).
T1 sequence: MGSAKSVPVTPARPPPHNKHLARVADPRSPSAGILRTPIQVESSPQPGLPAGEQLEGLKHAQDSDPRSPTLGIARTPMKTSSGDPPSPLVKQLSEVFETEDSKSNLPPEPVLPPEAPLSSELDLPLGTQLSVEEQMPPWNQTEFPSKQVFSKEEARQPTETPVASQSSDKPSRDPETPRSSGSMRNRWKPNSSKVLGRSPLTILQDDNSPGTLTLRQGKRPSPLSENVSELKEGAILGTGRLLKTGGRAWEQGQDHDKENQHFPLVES
The assay is described as follows: co-IP; exogenous, tagged plasmids co-transfected in 293T cells; lysate incubated with primary antibody at 4 °C for 12 h, Protein A/G magnetic beads 1 h at 4 °C, five washes, WB; in one panel GFP-CDCA3 co-transfected with HA-MYC and Flag-TRIM28 (interaction enhanced).

The target in assay [2] is T2, Cell Division Cycle Associated-3 (CDCA3), endogenous (human (endogenous in UM-UC3 and T24)) (UniProt Q99618).
T2 sequence: T1 sequence
The assay is described as follows: co-IP; endogenous proteins; lysate of UM-UC3 or T24 BLCA cells incubated with primary antibody at 4 °C for 12 h, Protein A/G magnetic beads 1 h at 4 °C, five washes, WB.

With Flag-TRIM28 (from UniProt Q13263 1-835), the binding entry in assay [1] is recorded as “binds”. “Tripartite Motif Containing 28 (TRIM28), endogenous (from UniProt Q13263 1-835)”: the binding entry in assay [2] was “binds”.
